Patent US20100267784A1, “NOVEL 4,5-DIHYDROISOXAZOLES WITH ESTROGENIC ACTIVITY” (priority 2007, published 2010)
At least one read-out could not be matched to a standard name with certainty.

The chains behind the UniProt entries cited, without tags or fusion partners.
UniProt Q92731, whole entry: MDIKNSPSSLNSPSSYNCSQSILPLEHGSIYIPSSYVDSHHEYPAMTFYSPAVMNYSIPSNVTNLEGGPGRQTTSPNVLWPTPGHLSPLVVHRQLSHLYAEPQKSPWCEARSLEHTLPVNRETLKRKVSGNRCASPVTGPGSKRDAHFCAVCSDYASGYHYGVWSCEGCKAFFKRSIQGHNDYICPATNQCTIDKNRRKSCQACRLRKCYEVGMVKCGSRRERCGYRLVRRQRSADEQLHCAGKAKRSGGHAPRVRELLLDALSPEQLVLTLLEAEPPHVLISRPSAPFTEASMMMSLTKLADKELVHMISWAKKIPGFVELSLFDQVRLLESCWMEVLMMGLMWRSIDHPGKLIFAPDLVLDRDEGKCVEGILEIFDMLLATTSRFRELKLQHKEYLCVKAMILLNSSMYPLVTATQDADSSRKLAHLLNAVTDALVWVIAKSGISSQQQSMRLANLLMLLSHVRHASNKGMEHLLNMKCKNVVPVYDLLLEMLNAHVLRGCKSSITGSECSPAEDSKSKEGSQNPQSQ

Molecular target: ERβ (Homo sapiens, UniProt Q92731)
Assay: ERβ reporter (luciferase) transactivation assay in transfected HEK293 cells
Assay type: cell-based
Set-up: expressed in transfected cells; host or cells: HEK293
Settings: sample concentration 10 μM, 24 hours, mean of at least three independent transfections
Experimental: Determination of the Estrogen Activity of the Compounds: Cell Culture, Transfection and Reporter Assays
All other reagents were of reagent grade from Sigma or Fluka. One day before transfection, HEK293 cells were seeded in 48-well plates (70×10^3 cells per well) in phenol-free Dulbecco's modified Eagle medium supplemented with 5% delipidated fetal bovine serum (Sigma) and antibiotics. After a medium change, the cells were transfected for 4 hours with 5 ng ERα or ERβ expression vector, 75 ng reporter plasmid pERE2TATA-LUC and 20 ng control plasmid pCMVβ by the calcium phosphate method. After transfection, the cells received fresh medium containing either vehicle (0.1% v/v) or test compound (10 μM). After 24 hours, the cells were washed, lysed and luciferase and β-galactosidase activities were determined from 20 μl of lysates with the Victor^2TM reader (PerkinElmer Wallac, Turku, Finland). […] The data are means ±SEM of at least three independent transfections.

Fc1cccc(CC2=NOC(CCc3ccccc3)C2)c1 (stereo not shown) [69ab, 3-(3-Fluorobenzyl)-5-phenethyl-4,5-dihydroisoxazole]
ERβ receptor activation relative to 10 nM E2 corresponding 100: 8.8%
